At least one read-out could not be matched to a standard name with certainty.
Tested on: IRF3-deficient THP1-Lucia™ ISG IRF3−/− cells
Test: THP1-Lucia ISG IRF3−/− reporter assay (IRF3-deficient control cells)
Format: cell-based, human
Conditions: compound 5 to 20 μM, 18 h
Method: The promoter was comprised of five IFN-stimulated response elements (ISRE) fused to an ISG54 minimal promoter which is unresponsive to NF-kB or AP-1 pathways. […] The IRF3-deficient THP1-Lucia™ ISG IRF3−/−reporter cell line was generated by CRISPR technology from the parent THP1-Lucia™ ISG reporter cell line.
THP1-Lucia™ ISG cells and IRF3-deficient THP1-Lucia™ ISG IRF3−/−cells were differentiated with PMA (100 ng/ml) and stimulated with compounds at the indicated concentrations (5 to 20 μM), positive control, or not treated (background). Luciferase secretion was quantified using the QUANTI-Luc luciferase assay system (InvivoGen) 18 h after stimulation. Data are shown as fold increase luciferase activity over background in Table 7 and represent the IRF3-dependent ISG54 promoter activity by the THP1-Lucia™ ISG cells in response to compounds. […] The fold increase of compounds (10 μM, *20 μM, **5 μM) induced IRF3 dependent luciferase activity is indicated as follows: “≠” indicates less than 2.4 fold increase; “+” indicates a 2.4-4.9 fold increase; “++” indicates a 5-9.9 fold increase; “+++” indicates a 10-19 fold increase; “++++” indicates a 20-39 fold increase; “+++++” indicates greater than or equal to 40 fold increase.

SMILES | fold increase of luciferase activity, THP1 ISG IRF3−/−
O=C(Nc1nc2ccc3scnc3c2s1)c1ccc2c(c1)CCCC2 [Example 13, N-{3,10-dithia-5,12-diazatricyclo[7.3.0.0^2,^6]dodeca-1,4,6,8,11-pentaen-4-yl}-5,6,7,8-tetrahydronaphthalene-2-carboxamide] | − (less than 0.5 fold above baseline was considered below the level of quantitation)
O=C(Nc1nc2ccc3scnc3c2s1)c1ccc2c(c1)OCO2 [Example 4, N-{3,10-dithia-5,12-diazatricyclo[7.3.0.0^2,^6]dodeca-1,4,6,8,11-pentaen-4-yl}-2H-1,3-benzodioxole-5-carboxamide] | − (less than 0.5 fold above baseline was considered below the level of quantitation)

Reference: patent US20200055871A1, “ACTIVATORS OF THE RETINOIC ACID INDUCIBLE GENE "RIG-I" PATHWAY AND METHODS OF USE THEREOF” (Kineta Immuno-Oncology LLC, priority 2018, published 2020)
